Counter-ions that a name gives are not always drawn. The list shows a part of the results. The calls rarely recur for the same compound in another form.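 In K562 cells expressing nanoluciferase-fused kinases, luminescence was recorded at 4 h intervals between 2 and 18 h, normalized as percent of control with DMSO at 100% and a positive control at 0%. A significant (2 sigma) signal drop marks a time point as decreased. The authors' rule for a hit is not shown and takes in more than the number of time points.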
Experiments:
Details in all cases: K562; 2-18 h
ROR2 = ROR2 (UniProt Q01974); test: number of time points (of 5) at which kinase-Nluc abundance scored as decreased, DMSO-normalised (count); higher = more persistent destabilization
RPS6KA1 = RPS6KA1 (UniProt Q15418); test: as above
SPHK1 = SPHK1 (UniProt Q9NYA1); test: as above
SRC = SRC (UniProt P12931); test: as above
STK24 = STK24 (UniProt Q9Y6E0); test: as above
STK38 = STK38 (UniProt Q15208); test: as above
SYK = SYK (UniProt P43405); test: as above
TEC = TEC (UniProt P42680); test: as above
TYK2 = TYK2 (UniProt P29597); test: as above
ULK3 = ULK3 (UniProt Q6PHR2); test: as above
YES1 = YES1 (UniProt P07947); test: as above
ZAK = ZAK (UniProt Q9NYL2); test: as above
ZAP70 = ZAP70 (UniProt P43403); test: as above
CDK4 = CDK4 (UniProt P11802); test: number of time points (of 4; 2 h point missing) at which kinase-Nluc abundance scored as decreased, DMSO-normalised (count); higher = more persistent destabilization
CDK7 = CDK7 (UniProt P50613); test: as above
CDK9 = CDK9 (UniProt P50750); test: as above

Chains of the proteins cited; added tags and fusions are not shown. Lines headed by an entry give the natural chain unless they say otherwise; changes in a name come on top.
UniProt Q01974, whole entry: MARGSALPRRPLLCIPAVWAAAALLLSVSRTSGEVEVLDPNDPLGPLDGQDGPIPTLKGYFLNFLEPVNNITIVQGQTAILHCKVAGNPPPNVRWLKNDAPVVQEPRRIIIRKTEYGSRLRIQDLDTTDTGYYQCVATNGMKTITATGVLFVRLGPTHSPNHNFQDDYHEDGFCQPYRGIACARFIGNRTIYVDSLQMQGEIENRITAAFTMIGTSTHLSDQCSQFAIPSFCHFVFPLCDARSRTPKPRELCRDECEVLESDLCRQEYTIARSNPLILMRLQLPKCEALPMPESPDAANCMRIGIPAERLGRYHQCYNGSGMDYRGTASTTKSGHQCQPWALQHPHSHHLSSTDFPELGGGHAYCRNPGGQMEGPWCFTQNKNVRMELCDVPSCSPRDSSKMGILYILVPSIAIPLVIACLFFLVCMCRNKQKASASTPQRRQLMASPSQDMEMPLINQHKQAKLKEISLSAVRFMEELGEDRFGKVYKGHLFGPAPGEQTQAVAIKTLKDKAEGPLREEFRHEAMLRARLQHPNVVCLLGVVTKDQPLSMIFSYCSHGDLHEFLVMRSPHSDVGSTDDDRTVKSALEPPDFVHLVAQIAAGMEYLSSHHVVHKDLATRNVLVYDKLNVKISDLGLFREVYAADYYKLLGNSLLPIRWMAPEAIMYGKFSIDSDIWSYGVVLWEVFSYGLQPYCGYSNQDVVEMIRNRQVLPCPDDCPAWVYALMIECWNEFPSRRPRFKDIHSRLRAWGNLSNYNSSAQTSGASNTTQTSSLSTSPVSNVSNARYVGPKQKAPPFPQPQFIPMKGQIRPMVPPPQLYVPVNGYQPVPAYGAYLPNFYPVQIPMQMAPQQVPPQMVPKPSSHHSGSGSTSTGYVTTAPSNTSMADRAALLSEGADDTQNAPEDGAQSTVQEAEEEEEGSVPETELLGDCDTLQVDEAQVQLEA
UniProt Q9NYA1, whole entry: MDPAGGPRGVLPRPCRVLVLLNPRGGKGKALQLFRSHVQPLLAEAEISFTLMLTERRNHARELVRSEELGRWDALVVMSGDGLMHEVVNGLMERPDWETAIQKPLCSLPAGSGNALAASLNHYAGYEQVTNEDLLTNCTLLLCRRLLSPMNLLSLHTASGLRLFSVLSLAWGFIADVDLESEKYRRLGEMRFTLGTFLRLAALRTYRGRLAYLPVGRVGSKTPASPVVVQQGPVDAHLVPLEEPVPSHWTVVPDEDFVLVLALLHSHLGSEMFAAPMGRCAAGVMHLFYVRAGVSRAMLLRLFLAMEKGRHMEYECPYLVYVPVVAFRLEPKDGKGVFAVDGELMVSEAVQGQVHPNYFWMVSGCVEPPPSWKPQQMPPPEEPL
UniProt Q9Y6E0: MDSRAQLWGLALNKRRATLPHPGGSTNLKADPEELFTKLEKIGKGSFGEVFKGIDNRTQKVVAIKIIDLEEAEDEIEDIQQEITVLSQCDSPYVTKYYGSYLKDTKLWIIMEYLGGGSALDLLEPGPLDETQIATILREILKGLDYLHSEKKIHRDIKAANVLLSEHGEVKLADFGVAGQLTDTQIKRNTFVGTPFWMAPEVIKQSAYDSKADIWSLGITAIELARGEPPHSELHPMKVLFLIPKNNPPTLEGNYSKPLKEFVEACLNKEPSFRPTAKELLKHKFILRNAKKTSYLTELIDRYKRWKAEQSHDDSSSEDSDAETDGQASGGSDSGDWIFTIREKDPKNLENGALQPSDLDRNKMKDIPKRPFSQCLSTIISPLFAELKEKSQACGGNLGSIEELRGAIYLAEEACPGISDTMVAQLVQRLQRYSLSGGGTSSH
UniProt Q15208: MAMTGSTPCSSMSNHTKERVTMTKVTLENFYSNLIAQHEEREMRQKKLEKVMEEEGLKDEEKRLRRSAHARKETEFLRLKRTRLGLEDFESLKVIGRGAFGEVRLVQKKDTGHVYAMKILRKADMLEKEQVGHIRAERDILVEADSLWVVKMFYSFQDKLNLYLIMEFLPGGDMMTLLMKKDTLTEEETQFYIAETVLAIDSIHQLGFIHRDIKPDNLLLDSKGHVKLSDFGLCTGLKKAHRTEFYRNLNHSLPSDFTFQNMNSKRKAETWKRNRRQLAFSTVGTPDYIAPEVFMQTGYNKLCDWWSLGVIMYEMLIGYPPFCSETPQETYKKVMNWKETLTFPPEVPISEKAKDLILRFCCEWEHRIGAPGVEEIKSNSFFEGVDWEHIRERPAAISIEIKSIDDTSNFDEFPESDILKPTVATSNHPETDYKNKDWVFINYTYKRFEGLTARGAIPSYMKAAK
UniProt P42680: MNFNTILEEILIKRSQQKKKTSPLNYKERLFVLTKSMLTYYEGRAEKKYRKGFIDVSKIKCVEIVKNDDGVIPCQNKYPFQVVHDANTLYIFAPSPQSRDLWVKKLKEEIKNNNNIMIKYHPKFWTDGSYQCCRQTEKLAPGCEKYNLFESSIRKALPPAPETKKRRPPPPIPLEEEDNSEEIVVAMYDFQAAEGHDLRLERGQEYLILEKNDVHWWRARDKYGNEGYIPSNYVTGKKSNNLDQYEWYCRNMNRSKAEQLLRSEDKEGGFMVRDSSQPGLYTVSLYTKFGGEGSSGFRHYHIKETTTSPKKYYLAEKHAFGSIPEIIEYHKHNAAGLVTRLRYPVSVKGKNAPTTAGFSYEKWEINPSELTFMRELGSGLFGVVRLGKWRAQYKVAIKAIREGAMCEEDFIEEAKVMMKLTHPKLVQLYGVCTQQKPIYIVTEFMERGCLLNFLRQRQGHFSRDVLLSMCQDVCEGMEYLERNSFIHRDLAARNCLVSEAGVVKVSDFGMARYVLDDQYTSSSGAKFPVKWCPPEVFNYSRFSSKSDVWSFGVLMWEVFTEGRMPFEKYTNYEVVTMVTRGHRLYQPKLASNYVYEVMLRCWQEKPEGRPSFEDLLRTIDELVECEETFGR
UniProt P29597: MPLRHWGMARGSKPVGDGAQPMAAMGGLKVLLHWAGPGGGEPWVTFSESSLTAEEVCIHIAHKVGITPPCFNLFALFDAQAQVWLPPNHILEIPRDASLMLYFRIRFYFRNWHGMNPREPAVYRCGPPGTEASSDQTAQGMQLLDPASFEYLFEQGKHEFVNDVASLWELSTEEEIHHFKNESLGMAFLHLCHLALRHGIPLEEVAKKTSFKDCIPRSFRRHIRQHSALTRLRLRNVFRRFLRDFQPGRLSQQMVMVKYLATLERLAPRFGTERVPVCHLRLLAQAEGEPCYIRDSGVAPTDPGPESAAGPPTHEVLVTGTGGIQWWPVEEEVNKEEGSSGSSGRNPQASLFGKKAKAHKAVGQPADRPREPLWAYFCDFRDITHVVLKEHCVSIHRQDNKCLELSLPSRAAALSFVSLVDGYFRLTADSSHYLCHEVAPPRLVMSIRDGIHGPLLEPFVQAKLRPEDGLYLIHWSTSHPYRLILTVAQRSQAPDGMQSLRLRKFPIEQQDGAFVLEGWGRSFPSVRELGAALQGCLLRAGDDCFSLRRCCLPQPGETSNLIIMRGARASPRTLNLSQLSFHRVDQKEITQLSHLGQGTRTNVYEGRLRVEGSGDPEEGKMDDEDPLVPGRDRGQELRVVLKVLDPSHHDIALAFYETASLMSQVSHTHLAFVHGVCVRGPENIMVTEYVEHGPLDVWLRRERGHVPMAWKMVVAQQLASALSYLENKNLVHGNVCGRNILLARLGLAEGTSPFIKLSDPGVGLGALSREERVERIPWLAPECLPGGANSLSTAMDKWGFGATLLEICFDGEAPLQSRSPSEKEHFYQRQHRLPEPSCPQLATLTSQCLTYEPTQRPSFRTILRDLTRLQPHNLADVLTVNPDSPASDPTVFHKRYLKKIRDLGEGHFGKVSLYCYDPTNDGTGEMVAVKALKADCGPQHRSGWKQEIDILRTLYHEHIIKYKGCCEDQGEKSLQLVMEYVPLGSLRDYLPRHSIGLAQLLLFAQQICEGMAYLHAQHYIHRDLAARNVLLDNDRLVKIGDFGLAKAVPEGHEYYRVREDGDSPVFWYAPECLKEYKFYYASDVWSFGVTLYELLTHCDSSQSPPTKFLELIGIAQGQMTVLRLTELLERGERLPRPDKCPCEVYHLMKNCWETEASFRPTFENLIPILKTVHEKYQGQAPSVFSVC
UniProt Q6PHR2: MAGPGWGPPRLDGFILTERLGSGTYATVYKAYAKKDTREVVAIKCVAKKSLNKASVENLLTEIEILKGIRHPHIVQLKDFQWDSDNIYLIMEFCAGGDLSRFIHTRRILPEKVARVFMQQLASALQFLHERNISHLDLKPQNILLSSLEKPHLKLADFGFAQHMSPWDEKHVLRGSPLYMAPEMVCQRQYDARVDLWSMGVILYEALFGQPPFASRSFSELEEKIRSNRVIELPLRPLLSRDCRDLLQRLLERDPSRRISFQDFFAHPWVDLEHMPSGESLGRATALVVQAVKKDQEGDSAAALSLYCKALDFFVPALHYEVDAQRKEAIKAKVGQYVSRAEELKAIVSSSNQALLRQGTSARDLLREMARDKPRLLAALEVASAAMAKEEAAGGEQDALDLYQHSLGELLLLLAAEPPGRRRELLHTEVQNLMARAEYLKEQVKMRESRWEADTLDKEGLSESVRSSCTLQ
UniProt P07947, whole entry, looked up: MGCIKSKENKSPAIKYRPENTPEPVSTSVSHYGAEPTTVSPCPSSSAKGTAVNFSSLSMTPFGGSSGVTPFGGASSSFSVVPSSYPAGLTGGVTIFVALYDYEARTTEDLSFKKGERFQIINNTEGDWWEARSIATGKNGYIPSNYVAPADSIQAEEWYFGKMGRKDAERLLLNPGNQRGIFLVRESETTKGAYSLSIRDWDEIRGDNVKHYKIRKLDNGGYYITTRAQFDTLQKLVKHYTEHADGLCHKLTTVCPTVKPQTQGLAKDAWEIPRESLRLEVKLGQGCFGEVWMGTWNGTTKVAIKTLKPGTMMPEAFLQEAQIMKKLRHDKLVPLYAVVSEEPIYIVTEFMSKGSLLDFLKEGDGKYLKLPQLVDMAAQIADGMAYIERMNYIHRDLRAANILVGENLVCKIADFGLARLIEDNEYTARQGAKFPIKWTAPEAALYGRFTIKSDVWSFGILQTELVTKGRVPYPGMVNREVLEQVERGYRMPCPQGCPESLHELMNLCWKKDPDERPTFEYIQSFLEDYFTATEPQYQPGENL
UniProt P43403: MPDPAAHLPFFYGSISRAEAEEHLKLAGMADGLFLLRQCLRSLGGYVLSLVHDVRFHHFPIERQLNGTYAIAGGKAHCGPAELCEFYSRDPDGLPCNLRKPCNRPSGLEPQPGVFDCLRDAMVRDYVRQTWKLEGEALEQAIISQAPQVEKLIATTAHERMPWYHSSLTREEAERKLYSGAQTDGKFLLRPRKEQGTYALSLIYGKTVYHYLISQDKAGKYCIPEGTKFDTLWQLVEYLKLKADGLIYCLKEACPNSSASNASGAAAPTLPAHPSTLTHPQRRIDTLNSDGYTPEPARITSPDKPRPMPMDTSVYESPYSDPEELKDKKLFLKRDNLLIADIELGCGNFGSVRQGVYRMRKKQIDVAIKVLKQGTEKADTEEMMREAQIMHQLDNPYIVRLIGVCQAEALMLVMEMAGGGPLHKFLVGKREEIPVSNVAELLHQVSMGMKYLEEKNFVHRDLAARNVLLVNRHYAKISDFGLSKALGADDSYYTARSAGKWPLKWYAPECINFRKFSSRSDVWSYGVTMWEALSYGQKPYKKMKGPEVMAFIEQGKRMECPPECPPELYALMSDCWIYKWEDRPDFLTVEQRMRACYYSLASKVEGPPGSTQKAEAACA
UniProt P11802: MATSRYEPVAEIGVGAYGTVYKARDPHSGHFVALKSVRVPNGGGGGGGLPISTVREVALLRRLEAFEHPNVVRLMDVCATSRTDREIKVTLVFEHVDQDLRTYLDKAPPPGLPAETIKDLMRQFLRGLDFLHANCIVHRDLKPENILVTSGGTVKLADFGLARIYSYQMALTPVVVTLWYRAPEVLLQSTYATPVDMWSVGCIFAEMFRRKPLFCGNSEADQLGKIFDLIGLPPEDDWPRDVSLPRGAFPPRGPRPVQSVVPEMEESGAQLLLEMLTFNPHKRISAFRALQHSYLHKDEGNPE
UniProt P50613: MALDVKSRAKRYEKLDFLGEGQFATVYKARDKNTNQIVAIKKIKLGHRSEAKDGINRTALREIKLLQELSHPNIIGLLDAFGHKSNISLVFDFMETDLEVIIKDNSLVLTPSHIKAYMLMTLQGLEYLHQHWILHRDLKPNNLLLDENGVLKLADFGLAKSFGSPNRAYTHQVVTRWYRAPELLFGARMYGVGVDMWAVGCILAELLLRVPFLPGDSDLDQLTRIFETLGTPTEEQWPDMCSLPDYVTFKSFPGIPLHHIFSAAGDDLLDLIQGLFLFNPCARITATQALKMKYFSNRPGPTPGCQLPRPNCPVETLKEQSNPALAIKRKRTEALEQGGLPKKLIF

Measured: number of time points

Cc1nc2c(NCc3cccc(S(C)(=O)=O)c3)nccn2c1-c1ccc(O)c(F)c1 (10 µM)
0: all assays above

Cc1cncc2cccc(S(=O)(=O)N3CCCNC[C@@H]3C)c12 [H-1152 (dihydrochloride)] (10 µM)
0: all assays above

CC(=O)O[C@@H]1[C@@H](OC(C)=O)[C@@H](O)[C@H](Oc2c(-c3ccc(O)cc3)oc3cc(O)cc(O)c3c2=O)O[C@H]1C (10 µM)
0: all assays above

CCCCNc1ncc(C(=O)NCc2ccc(-n3ccnc3)cc2)c(NC2CCC(O)CC2)n1 (stereo not given) (10 µM)
0: all assays above

CN1C(=O)N[C@@H](Cc2c[nH]c3c(Cl)cccc23)C1=O [Necrostatin 2 (S enantiomer)] (10 µM)
0: all assays above

Pulled one by one from above, 2 records:
CCCCNc1ncc(C(=O)NCc2ccc(-n3ccnc3)cc2)c(NC2CCC(O)CC2)n1 (stereo not given) (10 µM)
0: all assays above

CN1C(=O)N[C@@H](Cc2c[nH]c3c(Cl)cccc23)C1=O [Necrostatin 2 (S enantiomer)] (10 µM)
0: all assays above

Following part:

Cc1nc(NC(=O)N2CCC[C@H]2C(N)=O)sc1-c1ccnc(C(C)(C)C(F)(F)F)c1 [Alpelisib] (2.5 µM)
0: all assays above

Cn1cc(C2=C(c3ccc(Cl)cc3Cl)C(=O)NC2=O)c2ccccc21 (10 µM)
0: all assays above

CNC(=O)CN1CCC(Oc2cc3c(Nc4cccc(Cl)c4F)ncnc3cc2OC)CC1 [Sapitinib] (10 µM)
1: CDK7
0: all other assays above

CC(C)c1cc2c(c(O)c1O)[C@@]13CCCC(C)(C)[C@@H]1C[C@@H]2OC3=O [Carnosol] (2.5 µM)
0: all assays above

Nc1nc(Nc2ccc3c(c2)CC[C@@H](N2CCCC2)CC3)nn1-c1cc2c(nn1)-c1ccccc1CCC2 [Bemcentinib] (2.5 µM)
0: all assays above

Fc1ccc(Cl)cc1-c1nc(Nc2ccncc2)c2nccnc2n1 (10 µM)
0: all assays above

O=C(COc1ccc(Cl)cc1)NC1CCC(NC(=O)COc2ccc(Cl)cc2)CC1 (stereo not drawn) [ISRIB (trans-isomer)] (10 µM)
0: all assays above

N#Cc1cc(-c2ccnc(Nc3ccc(N4CCOCC4)cc3)n2)ccc1OC1CCOCC1 (10 µM)
0: all assays above

Cc1cccc(-c2nn3c(c2-c2ccnc4ccc(C(N)=O)cc24)CCC3)n1 [Galunisertib] (10 µM)
0: all assays above

CCOc1cc(N2CCC(O)CC2)ccc1Nc1ncc2c(n1)N(C1CCCC1)CCC(=O)N2C (2.5 µM)
0: all assays above

N#CC(=C(/N)Sc1ccccc1N)/C(C#N)=C(\N)Sc1ccccc1N (10 µM)
5: ULK3
0: all other assays above

CN1CCN(c2ccc(-c3ccncc3-c3cc(F)c(O)c(F)c3)cc2)CC1 (10 µM)
0: all assays above

CC1(C)C=Cc2c(ccc(C(=O)/C=C/c3ccc(O)cc3)c2O)O1 [4-Hydroxylonchocarpin] (10 µM)
0: all assays above

CC(C)Cn1ncc2cc(Oc3ccc(F)cc3F)c(C(=O)NCCN(C)C)cc21 [p38α inhibitor 1] (10 µM)
0: all assays above

CC(C)n1c(CO)nc2c(F)cc(-c3nc(Nc4ccc(CN5CCNCC5)cn4)ncc3F)cc21 (10 µM)
3: TEC
4: TYK2 | CDK9
1: STK38
2: YES1 | CDK7
0: all other assays above

CN1C(=O)[C@@H](NC(=O)c2cc(Cc3ccccc3)on2)COc2ccccc21 (10 µM)
0: all assays above

Nc1ccc(-c2nc3ccc(-c4nc5ccc(N)cc5[nH]4)cc3[nH]2)cc1 (10 µM)
0: all assays above

CCc1cc(Nc2nccc(-c3c(-c4ccc(OC)c(C(=O)Nc5c(F)cccc5F)c4)nc4ccccn34)n2)c(OC)cc1N1CCC(N2CCN(S(C)(=O)=O)CC2)CC1 (2.5 µM)
0: all assays above

CCCCNc1ncc2c(-c3ccc(F)cc3)nn(CC3CCC(N)CC3)c2n1 (stereo not given) (2.5 µM)
0: all assays above

CC(C)=CCC[C@](C)(O[C@@H]1O[C@H](CO[C@@H]2O[C@H](CO)[C@@H](O)[C@H](O)[C@H]2O)[C@@H](O)[C@H](O)[C@H]1O)[C@H]1CC[C@]2(C)[C@@H]1[C@H](O)C[C@@H]1[C@@]3(C)CC[C@H](O[C@@H]4O[C@H](CO)[C@@H](O)[C@H](O)[C@H]4O[C@@H]4O[C@H](CO)[C@@H](O)[C@H](O)[C@H]4O)C(C)(C)[C@@H]3CC[C@]12C [Ginsenoside Rb1] (10 µM)
0: all assays above

— the supplement of paper PMC12823440, “Inhibitors supercharge kinase turnover through native proteolytic circuits” (Nature, 2025)
